Experimental findings from paper PMC4735494 are described below.

Results are given in words; binding and its absence hold for the method and conditions named. Binding seen in cells or lysates may run through a third protein. A result given as binding can be weak or reduced; the word gives no strength. Sequences can lack the tags named with a protein.

Assay [1] concerns the target GFP-tagged SsSSVP1^∆SP (SsSSVP1^∆SP-GFP) (Sclerotinia sclerotiorum). Nature of the assay: co-IP; co-expression in N. benthamiana leaves; RIPA lysis buffer; IP with anti-GFP monoclonal antibody and protein G plus-agarose, 8 h at 4°C; immunoblot with anti-FLAG. On the technique in general: In western blotting, separated proteins are transferred to a membrane and probed.
The target of assay [2] is SsSSVP1^∆SP-nYFP (Sclerotinia sclerotiorum). The experiment in a line: split reporter; BiFC with nYFP and cYFP fusions transiently co-expressed in N. benthamiana leaves; confocal microscopy 3 days after agroinfiltration.

B1: 3×FLAG-tagged QCR8 (QCR8-3×FLAG) (protein, UniProt Q9SG91 1-72)
chain: MGKQPVKLKAVVYALSPFQQKIMTGLWKDLPEKIHHKVSENWISATLLVTPVVGTYWYAQYFKEQEKLEHRF
B1: the binding entry in assay [1] is reported as “binds”.

B2: QCR8-cYFP (protein, UniProt Q9SG91 1-72)
chain: B1 chain
In the case of B2, the binding entry in assay [2] was “binds”.
